From publication doi:10.1101/843383
These are yes or no findings as the source states them, for the method shown. In cells and extracts the contact can be indirect. Some results given as binding are weak or reduced against the parent protein; the word gives no strength.

Chains of the proteins cited; added tags and fusions are not shown.
UniProt P07548: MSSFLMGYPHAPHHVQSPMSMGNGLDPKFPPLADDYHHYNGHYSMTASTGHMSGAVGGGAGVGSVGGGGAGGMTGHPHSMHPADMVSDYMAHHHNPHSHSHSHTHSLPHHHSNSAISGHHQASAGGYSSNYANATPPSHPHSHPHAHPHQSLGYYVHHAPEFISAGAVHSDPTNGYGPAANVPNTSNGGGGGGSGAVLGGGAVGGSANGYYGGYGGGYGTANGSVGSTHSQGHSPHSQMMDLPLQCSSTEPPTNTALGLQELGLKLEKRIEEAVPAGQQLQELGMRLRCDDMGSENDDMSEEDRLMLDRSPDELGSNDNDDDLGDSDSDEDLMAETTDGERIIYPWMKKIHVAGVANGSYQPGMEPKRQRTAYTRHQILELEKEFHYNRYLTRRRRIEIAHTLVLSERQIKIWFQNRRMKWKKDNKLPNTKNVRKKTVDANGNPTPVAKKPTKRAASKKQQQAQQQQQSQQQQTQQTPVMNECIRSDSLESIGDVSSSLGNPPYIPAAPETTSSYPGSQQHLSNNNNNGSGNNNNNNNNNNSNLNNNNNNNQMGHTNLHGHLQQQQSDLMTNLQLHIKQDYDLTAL
UniProt P09077: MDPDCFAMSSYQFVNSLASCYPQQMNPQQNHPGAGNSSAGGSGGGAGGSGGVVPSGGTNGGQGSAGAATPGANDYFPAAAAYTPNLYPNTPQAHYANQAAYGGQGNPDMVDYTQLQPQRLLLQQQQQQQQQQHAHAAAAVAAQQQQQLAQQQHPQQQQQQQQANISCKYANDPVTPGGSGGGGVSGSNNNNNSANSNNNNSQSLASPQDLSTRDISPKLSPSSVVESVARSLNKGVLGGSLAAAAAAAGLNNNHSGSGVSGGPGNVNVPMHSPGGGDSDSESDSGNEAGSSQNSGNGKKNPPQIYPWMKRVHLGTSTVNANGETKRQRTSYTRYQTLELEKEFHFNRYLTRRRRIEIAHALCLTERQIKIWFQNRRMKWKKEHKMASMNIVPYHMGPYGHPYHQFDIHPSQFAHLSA
UniProt Q9TVM2: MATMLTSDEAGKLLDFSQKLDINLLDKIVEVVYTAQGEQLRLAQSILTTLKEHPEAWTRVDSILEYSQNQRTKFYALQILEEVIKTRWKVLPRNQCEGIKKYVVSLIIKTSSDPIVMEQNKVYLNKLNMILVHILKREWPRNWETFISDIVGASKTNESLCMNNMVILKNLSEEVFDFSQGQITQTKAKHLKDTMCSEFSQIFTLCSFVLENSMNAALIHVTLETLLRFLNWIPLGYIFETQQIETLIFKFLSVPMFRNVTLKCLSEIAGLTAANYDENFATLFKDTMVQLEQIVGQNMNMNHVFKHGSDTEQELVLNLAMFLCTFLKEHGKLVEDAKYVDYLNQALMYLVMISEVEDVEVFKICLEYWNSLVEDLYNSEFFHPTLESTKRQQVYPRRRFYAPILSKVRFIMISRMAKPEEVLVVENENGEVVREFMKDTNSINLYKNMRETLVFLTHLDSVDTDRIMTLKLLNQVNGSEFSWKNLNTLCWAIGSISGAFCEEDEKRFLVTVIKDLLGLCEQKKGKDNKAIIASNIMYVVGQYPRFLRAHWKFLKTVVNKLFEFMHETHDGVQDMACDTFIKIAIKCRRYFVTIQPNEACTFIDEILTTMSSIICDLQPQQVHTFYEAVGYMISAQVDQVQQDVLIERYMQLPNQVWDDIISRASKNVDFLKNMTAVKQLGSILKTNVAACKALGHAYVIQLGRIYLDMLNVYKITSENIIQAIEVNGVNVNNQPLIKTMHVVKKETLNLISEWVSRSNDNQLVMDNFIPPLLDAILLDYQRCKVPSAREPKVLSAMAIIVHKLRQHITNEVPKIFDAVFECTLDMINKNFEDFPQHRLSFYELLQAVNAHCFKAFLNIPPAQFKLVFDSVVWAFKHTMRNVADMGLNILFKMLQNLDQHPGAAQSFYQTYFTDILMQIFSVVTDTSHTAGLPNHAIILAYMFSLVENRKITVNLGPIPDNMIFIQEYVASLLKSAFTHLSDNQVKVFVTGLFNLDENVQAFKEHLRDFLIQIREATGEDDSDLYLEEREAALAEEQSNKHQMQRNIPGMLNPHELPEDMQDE

What was measured:
[1] = molecular target: VN-Dfd (Deformed fused to the N-terminal fragment of Venus) (Drosophila) (UniProt P07548); experiment: split reporter
[2] = molecular target: VC-Scr (Sex combs reduced fused to the C-terminal fragment of Venus) (Drosophila) (UniProt P09077); experiment: split reporter

| binding [1] | binding [2] | Substance |
| --- | --- | --- |
| binds |  | VC-Emb (Embargoed fused to the C-terminal fragment of Venus), in embryos (from UniProt Q9TVM2 1-1063) |
|  | binds | VN-Emb (Embargoed fused to the N-terminal fragment of Venus) (from UniProt Q9TVM2 1-1063) |
